# Assay results from PubChem BioAssay AID1347075 (National Center for Advancing Translational Sciences (NCATS), 2019).
# The campaign covered roughly 400,000 compounds. About 5,500 (1.4%) were called active. The shares of active, inactive and inconclusive entries below differ from those in the screen. Calls follow the shape of the dose curve; as a rule, active = well fitted cell-killing curve with a large enough effect; inconclusive = small, poorly fitted or top-dose-only effect, or effect the other way; inactive = flat fitted curve, though single readings scatter. Where the call is inconclusive, the potency comes from a doubtful curve fit.
# Assay: qHTS assay for MDR1-selective chemotherapeutics: Primary screen using the parental adenocarcinoma cell KB-3-1; also: nearly all actives have a fitted effect of over 60% in size
# Details: KB-3-1 viability, CellTiter-Glo ATP luminescence, 72 h; activity change, negative = cytotoxic: at 46.1 µM (top of the series)
# Procedure, shortened: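 Using CellTiter-Glo luminescence, growth of non-resistant KB-3-1 adenocarcinoma cells is assessed 72 h after pin-tool compound addition at 37 °C. Normalized responses across the concentration series yield fitted curves.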
# % is scaled to controls: 0 for no effect and ±100 for the full control effect; potency is read from the fitted curve at half-maximal effect.
SMILES,Potency,"activity change, negative = cytotoxic"
CC(C)(C)c1cccc(P(=O)(c2ccccc2)c2ccccc2)c1O,"inconclusive: 29.1 µM [cytotoxic, partial curve, poor fit]",
Cc1ccc(C(=O)NCc2ccccc2)cc1NC(=O)c1nsc2ccccc12,"inconclusive: 16.4 µM [cytotoxic, single point]",
COc1cccc(/C=C/c2nc(C#N)c(NCC(C)C)o2)c1,"inconclusive: 20.6 µM [cytotoxic, single point]",
COc1ccc(Cl)cc1S(=O)(=O)N1CCC(C(=O)NC2CC2)CC1,,inactive: 25.6%
CCOc1ccc2cc(C3CC(c4ccco4)=NN3S(C)(=O)=O)c(=O)[nH]c2c1 (centres undefined),"inconclusive: 9.2 µM [cytotoxic, partial curve, poor fit]",
C=C(C)COc1ccc(-c2n[nH]c(C)c2-c2ccccc2)c(O)c1,"inconclusive: 20.6 µM [cytotoxic, single point]",
COc1ccc(S(=O)(=O)N2CCN(CC(=O)NC(Cc3ccccc3)C(C)=O)CC2)cc1 (centres undefined),,inactive: -4.93%
Cc1ccc(NC(=O)C2CCN(C(=O)NCc3ccccc3)CC2)cc1C,,inconclusive: 4.28%
Cc1cc(C)cc(N/C(N)=N/c2nc(C)cc(C)n2)c1,"inconclusive: 18.4 µM [cytotoxic, single point]",
COc1cccc2c1C1COC3C4CC(C(=O)O)C(C(C2)N13)N4C (centres undefined),"inconclusive: 5.17 µM [cytotoxic, full curve, poor fit]",
Cc1cc(-c2ccc(C)c(S(=O)(=O)NCc3cccs3)c2)on1,"inconclusive: 29.1 µM [cytotoxic, single point]",
COc1ccc(Cn2c(SCc3ccc(C)cc3)nc3cc(OC)c(OC)cc3c2=N)cc1Cl,"inconclusive: 20.6 µM [cytotoxic, single point]",
CN(CCO)S(=O)(=O)c1ccc2c(c1)C(=NN)c1cc(S(=O)(=O)N(C)CCO)ccc1-2,,inactive: 4.91%
Cn1cc(C(=O)NCCc2ccccc2)c(=O)c2cc(S(=O)(=O)N3CCCCC3)ccc21,"inconclusive: 20.6 µM [rising, single point]",
CSc1ccc(/C=N/NC(=O)c2ccc(C)c(C)c2)cc1,,inactive: 0%
COc1ccc([C@H]2CC(=O)C=C(c3cc(F)ccc3OC)C2)cc1,"inconclusive: 29.1 µM [cytotoxic, single point]",
CC(=O)Nc1ccc(NC(=O)CSc2nnc(N)n2-c2ccccc2)cc1,,inconclusive: -18.8%
COc1cccc(Oc2cn[nH]c2-c2ccc(OC)cc2O)c1,"inconclusive: 25.9 µM [cytotoxic, single point]",
Cc1nn(-c2ccccc2)c(Cl)c1/C=C1\C(=O)N(C)C(=S)N1C,"inconclusive: 29.1 µM [cytotoxic, single point]",

# Quoted at random: two records from the list
SMILES,Potency,"activity change, negative = cytotoxic"
Cn1cc(C(=O)NCCc2ccccc2)c(=O)c2cc(S(=O)(=O)N3CCCCC3)ccc21,"inconclusive: 20.6 µM [rising, single point]",
CN(CCO)S(=O)(=O)c1ccc2c(c1)C(=NN)c1cc(S(=O)(=O)N(C)CCO)ccc1-2,,inactive: 4.91%
